These are yes or no findings as the source states them, for the method shown. For some of these results: In cells and extracts the contact can be indirect. Some entries that bind do so weakly or less than the wild type. Each block holds one molecule with its values, some of them ahead of it.
Legend:
[1] = target: endogenous Rere (mouse (endogenous in NIH3T3)) (UniProt Q80TZ9); test: co-IP
Rere-HA = Rere-HA (UniProt Q80TZ9); test: co-IP
Rere-Flag = Rere-Flag (UniProt Q80TZ9); test: SEC
Flag-Hdac1 = Flag-Hdac1 (UniProt O09106); test: co-IP

Protein sequences, listed by entry. Tags and fused reporters are not part of them.
UniProt Q80TZ9, whole entry: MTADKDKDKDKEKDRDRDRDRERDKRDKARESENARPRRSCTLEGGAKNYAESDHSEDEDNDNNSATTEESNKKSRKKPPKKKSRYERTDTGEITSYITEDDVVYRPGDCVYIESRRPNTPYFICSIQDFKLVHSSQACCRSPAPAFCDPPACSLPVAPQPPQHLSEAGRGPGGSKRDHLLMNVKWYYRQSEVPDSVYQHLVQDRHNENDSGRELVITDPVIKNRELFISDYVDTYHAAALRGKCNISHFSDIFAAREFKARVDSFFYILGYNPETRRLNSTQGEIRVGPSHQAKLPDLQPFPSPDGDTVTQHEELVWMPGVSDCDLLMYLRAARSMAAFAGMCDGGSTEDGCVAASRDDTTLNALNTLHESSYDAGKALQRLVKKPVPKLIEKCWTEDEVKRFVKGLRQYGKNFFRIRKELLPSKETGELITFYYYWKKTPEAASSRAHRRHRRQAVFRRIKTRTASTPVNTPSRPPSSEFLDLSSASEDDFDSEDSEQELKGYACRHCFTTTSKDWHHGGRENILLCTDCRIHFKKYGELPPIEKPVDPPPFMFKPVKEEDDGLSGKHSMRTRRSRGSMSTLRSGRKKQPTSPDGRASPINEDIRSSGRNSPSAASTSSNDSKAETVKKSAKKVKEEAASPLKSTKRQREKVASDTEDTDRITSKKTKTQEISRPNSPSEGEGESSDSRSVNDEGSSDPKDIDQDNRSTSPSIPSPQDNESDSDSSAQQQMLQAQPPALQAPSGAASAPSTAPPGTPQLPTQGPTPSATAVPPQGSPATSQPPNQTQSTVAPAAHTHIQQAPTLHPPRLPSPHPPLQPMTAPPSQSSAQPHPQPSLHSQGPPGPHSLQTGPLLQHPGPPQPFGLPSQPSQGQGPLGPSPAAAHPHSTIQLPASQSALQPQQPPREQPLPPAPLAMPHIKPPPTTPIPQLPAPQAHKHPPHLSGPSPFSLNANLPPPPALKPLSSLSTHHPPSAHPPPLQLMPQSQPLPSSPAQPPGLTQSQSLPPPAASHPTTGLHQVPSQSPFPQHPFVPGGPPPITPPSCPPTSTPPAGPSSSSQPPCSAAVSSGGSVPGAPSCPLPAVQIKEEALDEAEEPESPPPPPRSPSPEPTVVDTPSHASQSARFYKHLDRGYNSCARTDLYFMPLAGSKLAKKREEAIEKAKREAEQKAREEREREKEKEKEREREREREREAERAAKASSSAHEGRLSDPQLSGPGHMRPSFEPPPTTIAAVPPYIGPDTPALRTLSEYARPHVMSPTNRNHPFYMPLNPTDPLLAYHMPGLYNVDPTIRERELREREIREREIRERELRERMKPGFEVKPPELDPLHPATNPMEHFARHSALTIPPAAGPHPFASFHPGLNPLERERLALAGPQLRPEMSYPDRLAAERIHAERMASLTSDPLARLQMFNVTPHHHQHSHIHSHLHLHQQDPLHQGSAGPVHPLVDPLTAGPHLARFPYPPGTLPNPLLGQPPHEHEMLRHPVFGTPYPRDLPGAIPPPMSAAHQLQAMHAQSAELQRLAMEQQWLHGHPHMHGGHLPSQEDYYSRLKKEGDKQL
UniProt O09106, whole entry: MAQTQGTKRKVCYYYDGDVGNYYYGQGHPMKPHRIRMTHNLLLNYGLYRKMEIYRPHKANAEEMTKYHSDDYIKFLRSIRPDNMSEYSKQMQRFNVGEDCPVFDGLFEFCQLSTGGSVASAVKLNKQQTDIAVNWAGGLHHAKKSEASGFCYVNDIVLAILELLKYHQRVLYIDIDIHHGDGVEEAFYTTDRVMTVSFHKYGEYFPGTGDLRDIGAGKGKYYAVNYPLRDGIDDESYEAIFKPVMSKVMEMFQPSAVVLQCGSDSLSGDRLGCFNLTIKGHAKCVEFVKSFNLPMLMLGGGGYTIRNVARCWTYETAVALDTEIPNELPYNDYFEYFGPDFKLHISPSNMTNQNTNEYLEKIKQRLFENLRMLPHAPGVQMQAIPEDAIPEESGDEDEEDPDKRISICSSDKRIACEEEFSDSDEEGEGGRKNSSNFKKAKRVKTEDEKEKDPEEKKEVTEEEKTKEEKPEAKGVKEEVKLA
UniProt P70288, whole entry: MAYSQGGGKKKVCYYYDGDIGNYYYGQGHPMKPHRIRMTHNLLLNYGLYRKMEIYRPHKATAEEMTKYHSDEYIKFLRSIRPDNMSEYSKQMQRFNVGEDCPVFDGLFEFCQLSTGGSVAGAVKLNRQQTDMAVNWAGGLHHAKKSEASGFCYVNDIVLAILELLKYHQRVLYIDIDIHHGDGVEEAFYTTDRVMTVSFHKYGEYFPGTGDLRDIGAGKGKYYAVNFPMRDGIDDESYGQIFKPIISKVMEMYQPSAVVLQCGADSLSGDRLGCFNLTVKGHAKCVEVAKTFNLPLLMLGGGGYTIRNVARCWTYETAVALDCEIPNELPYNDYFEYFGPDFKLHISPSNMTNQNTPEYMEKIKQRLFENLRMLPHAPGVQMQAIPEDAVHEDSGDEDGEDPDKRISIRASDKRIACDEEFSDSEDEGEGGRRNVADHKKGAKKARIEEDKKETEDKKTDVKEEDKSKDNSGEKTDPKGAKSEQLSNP

binding [1]: binds
binding (Rere-HA): binds
Molecule: Hdac1 (from UniProt O09106 1-482)

Molecule: Flag-Hdac2 (from UniProt P70288 1-488)
binding (Rere-Flag): binds

Molecule: Flag-Hdac1 (from UniProt O09106 1-482)
binding (Rere-Flag): binds

binding [1]: binds
binding (Rere-HA): binds
Molecule: Hdac2 (from UniProt P70288 1-488)

binding (Flag-Hdac1): binds
B1: endogenous Rarα (receptor, UniProt P11416 1-462)
chain: MASNSSSCPTPGGGHLNGYPVPPYAFFFPPMLGGLSPPGALTSLQHQLPVSGYSTPSPATIETQSSSSEEIVPSPPSPPPLPRIYKPCFVCQDKSSGYHYGVSACEGCKGFFRRSIQKNMVYTCHRDKNCIINKVTRNRCQYCRLQKCFDVGMSKESVRNDRNKKKKEAPKPECSESYTLTPEVGELIEKVRKAHQETFPALCQLGKYTTNNSSEQRVSLDIDLWDKFSELSTKCIIKTVEFAKQLPGFTTLTIADQITLLKAACLDILILRICTRYTPEQDTMTFSDGLTLNRTQMHNAGFGPLTDLVFAFANQLLPLEMDDAETGLLSAICLICGDRQDLEQPDKVDMLQEPLLEALKVYVRKRRPSRPHMFPKMLMKITDLRSISAKGAERVITLKMEIPGSMPPLIQEMLENSEGLDTLSGQSGGGTRDGGGLAPPPGSCSPSLSPSSHRSSPATQSP
